# From the supplement of paper PMC8728848
# This is one part of the list.
# B1: SRS6 (Toxoplasma gondii), Q9NH12 (protein)
# chain: MARTGSMQQRRGGFQTTARMLMAVCVSGVLLLSSGPSSANKLTEGQQNQNSGPGAATQEGPTIEGAVAKCVLKTTAAENGSSRAKNTTGLTLSKENLVVSLQCSGEKNAIVPKDQKKVCSAAPNAKVADCKGADTDKQVTLKSLLGTSGDIQWEKTIVSTDNKGEVMTLKIKESELPLFDKAFFVGCEEDKAQTRTSQATECKVNVSVKARPSTVGENNVVTCAYGKDSNPRPLEVEMSADNDTLTIDCGTDGSLKPTKYTEEFCVTDNSQLESCTTKKFSEILPTFLPSWWVSDSQNGSAKLTIPESGFPEEQQQFRLGCVPKKTTQSPQANPSVKTEKEEGAQNTDASTSNCSVIVTVKASNFSSLASSIAPTAAVAGGAAALTGFLVGSF
# Legend:
# Assay in all cases: glycan array binding signal (z-score within array); higher = stronger binding
# Settings in all cases: glycan notation: IUPAC condensed, linker removed
# [1] = target: Man(b1-4)GlcNAc
# Summary of the method: (§1)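 Glycan array data came from 3228 arrays in the Consortium for Functional Glycomics database, and only arrays with an available protein sequence were kept. Glycan names were put into IUPAC-condensed notation, and columns mapping to the same glycan were averaged. The binding signal is a within-array Z-score, averaged across arrays of one protein sequence run at different concentrations or buffers and across linkers. A negative Z-score can be read as non-binding.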
# [2] = target: Neu5Ac(a2-3)Gal
# Summary of the method: as §1
# [3] = target: Neu5Ac(a2-3)Gal(b1-3)GalNAc
# Summary of the method: as §1
# [4] = target: Neu5Ac(a2-3)Gal(b1-3)GalNAc(b1-3)Gal(a1-4)Gal(b1-4)Glc
# Summary of the method: as §1
# [5] = target: Neu5Ac(a2-3)Gal(b1-3)GalNAc(b1-4)[Neu5Ac(a2-3)]Gal(b1-4)Glc
# Summary of the method: as §1
# [6] = target: Neu5Ac(a2-3)Gal(b1-3)GalNAc6S
# Summary of the method: as §1
# [7] = target: Neu5Ac(a2-3)Gal(b1-3)GlcNAc
# Summary of the method: as §1
# [8] = target: Neu5Ac(a2-3)Gal(b1-3)GlcNAc(b1-2)Man(a1-3)[Neu5Ac(a2-3)Gal(b1-3)GlcNAc(b1-2)Man(a1-6)]Man(b1-4)GlcNAc(b1-4)GlcNAc
# Summary of the method: as §1
# [9] = target: Neu5Ac(a2-3)Gal(b1-3)GlcNAc(b1-3)Gal(b1-3)GlcNAc
# Summary of the method: as §1
# [10] = target: Neu5Ac(a2-3)Gal(b1-3)GlcNAc(b1-3)Gal(b1-4)GlcNAc
# Summary of the method: as §1
# [11] = target: Neu5Ac(a2-3)Gal(b1-3)GlcNAc(b1-3)GalNAc
# Summary of the method: as §1
# [12] = target: Neu5Ac(a2-3)Gal(b1-3)GlcNAc6S
# Summary of the method: as §1
# [13] = target: Neu5Ac(a2-3)Gal(b1-3)[Fuc(a1-4)]GlcNAc
# Summary of the method: as §1
# [14] = target: Neu5Ac(a2-3)Gal(b1-3)[Fuc(a1-4)]GlcNAc(b1-3)Gal(b1-3)[Fuc(a1-4)]GlcNAc
# Summary of the method: as §1
# [15] = target: Neu5Ac(a2-3)Gal(b1-3)[Fuc(a1-4)]GlcNAc(b1-3)Gal(b1-4)[Fuc(a1-3)]GlcNAc
# Summary of the method: as §1
# [16] = target: Neu5Ac(a2-3)Gal(b1-3)[Neu5Ac(a2-3)Gal(b1-4)]GlcNAc
# Summary of the method: as §1
# [17] = target: Neu5Ac(a2-3)Gal(b1-3)[Neu5Ac(a2-6)]GalNAc
# Summary of the method: as §1
# [18] = target: Neu5Ac(a2-3)Gal(b1-4)Glc
# Summary of the method: as §1
# [19] = target: Neu5Ac(a2-3)Gal(b1-4)GlcNAc
# Summary of the method: as §1
# [20] = target: Neu5Ac(a2-3)Gal(b1-4)GlcNAc(b1-2)Man(a1-3)[GlcNAc(b1-2)Man(b1-4)GlcNAc(b1-2)Man(a1-6)]Man(b1-4)GlcNAc(b1-4)GlcNAc
# Summary of the method: as §1
# [21] = target: Neu5Ac(a2-3)Gal(b1-4)GlcNAc(b1-2)Man(a1-3)[Neu5Ac(a2-6)Gal(b1-4)GlcNAc(b1-2)Man(a1-6)]Man(b1-4)GlcNAc(b1-4)GlcNAc
# Summary of the method: as §1
# [22] = target: Neu5Ac(a2-3)Gal(b1-4)GlcNAc(b1-3)Gal(b1-3)GlcNAc
# Summary of the method: as §1
# [23] = target: Neu5Ac(a2-3)Gal(b1-4)GlcNAc(b1-3)Gal(b1-4)GlcNAc
# Summary of the method: as §1
# [24] = target: Neu5Ac(a2-3)Gal(b1-4)GlcNAc(b1-3)Gal(b1-4)GlcNAc(b1-3)Gal(b1-4)GlcNAc
# Summary of the method: as §1
# [25] = target: Neu5Ac(a2-3)Gal(b1-4)GlcNAc(b1-3)Gal(b1-4)[Fuc(a1-3)]GlcNAc
# Summary of the method: as §1
# [26] = target: Neu5Ac(a2-3)Gal(b1-4)GlcNAc(b1-3)GalNAc
# Summary of the method: as §1
# [27] = target: Neu5Ac(a2-3)Gal(b1-4)GlcNAc(b1-6)[Gal(b1-3)]GalNAc
# Summary of the method: as §1
# [28] = target: Neu5Ac(a2-3)Gal(b1-4)GlcNAc(b1-6)[Neu5Ac(a2-3)Gal(b1-3)]GalNAc
# Summary of the method: as §1
# [29] = target: Neu5Ac(a2-3)Gal(b1-4)GlcNAc6S
# Summary of the method: as §1
# [30] = target: Neu5Ac(a2-3)Gal(b1-4)[Fuc(a1-3)]GlcNAc
# Summary of the method: as §1
# [31] = target: Neu5Ac(a2-3)Gal(b1-4)[Fuc(a1-3)]GlcNAc(b1-3)Gal
# Summary of the method: as §1
# [32] = target: Neu5Ac(a2-3)Gal(b1-4)[Fuc(a1-3)]GlcNAc(b1-3)Gal(b1-4)GlcNAc
# Summary of the method: as §1
# [33] = target: Neu5Ac(a2-3)Gal(b1-4)[Fuc(a1-3)]GlcNAc(b1-3)Gal(b1-4)[Fuc(a1-3)]GlcNAc(b1-3)Gal(b1-4)[Fuc(a1-3)]GlcNAc
# Summary of the method: as §1
# [34] = target: Neu5Ac(a2-3)Gal(b1-4)[Fuc(a1-3)]GlcNAc(b1-3)GalNAc
# Summary of the method: as §1
# [35] = target: Neu5Ac(a2-3)Gal(b1-4)[Fuc(a1-3)]GlcNAc(b1-6)[Gal(b1-3)]GalNAc
# Summary of the method: as §1
# [36] = target: Neu5Ac(a2-3)Gal(b1-4)[Fuc(a1-3)]GlcNAc(b1-6)[Neu5Ac(a2-3)Gal(b1-3)]GalNAc
# Summary of the method: as §1
# [37] = target: Neu5Ac(a2-3)Gal(b1-4)[Fuc(a1-3)]GlcNAc6S
# Summary of the method: as §1
# [38] = target: Neu5Ac(a2-3)Gal6S(b1-4)GlcNAc
# Summary of the method: as §1
binder,measurement,setting,value
B1,glycan array binding signal (z-score),[1],-0.28
same,glycan array binding signal (z-score),[2],0.442
same,glycan array binding signal (z-score),[3],-0.04
same,glycan array binding signal (z-score),[4],0.94
same,glycan array binding signal (z-score),[5],0.148
same,glycan array binding signal (z-score),[6],0.685
same,glycan array binding signal (z-score),[7],-0.625
same,glycan array binding signal (z-score),[8],-0.868
same,glycan array binding signal (z-score),[9],0.353
same,glycan array binding signal (z-score),[10],-0.41
same,glycan array binding signal (z-score),[11],1.46
same,glycan array binding signal (z-score),[12],0.818
same,glycan array binding signal (z-score),[13],-0.244
same,glycan array binding signal (z-score),[14],1.32
same,glycan array binding signal (z-score),[15],-0.083
same,glycan array binding signal (z-score),[16],-1.11
same,glycan array binding signal (z-score),[17],-0.198
same,glycan array binding signal (z-score),[18],-0.824
same,glycan array binding signal (z-score),[19],-0.934
same,glycan array binding signal (z-score),[20],0.985
same,glycan array binding signal (z-score),[21],-0.635
same,glycan array binding signal (z-score),[22],-0.529
same,glycan array binding signal (z-score),[23],2.13
same,glycan array binding signal (z-score),[24],0.084
same,glycan array binding signal (z-score),[25],-0.259
same,glycan array binding signal (z-score),[26],-0.207
same,glycan array binding signal (z-score),[27],0.035
same,glycan array binding signal (z-score),[28],-1.12
same,glycan array binding signal (z-score),[29],0.75
same,glycan array binding signal (z-score),[30],-0.808
same,glycan array binding signal (z-score),[31],-0.979
same,glycan array binding signal (z-score),[32],1.16
same,glycan array binding signal (z-score),[33],-0.225
same,glycan array binding signal (z-score),[34],0.946
same,glycan array binding signal (z-score),[35],-0.157
same,glycan array binding signal (z-score),[36],0.381
same,glycan array binding signal (z-score),[37],0.07
same,glycan array binding signal (z-score),[38],0.781
